Results reported in PubChem BioAssay AID504834 (National Center for Advancing Translational Sciences (NCATS), 2011).
Out of some 320,000 compounds screened, about 22,000 (6.9%) were called active. The inconclusive results got no clear call from the source; some entries with a clear call stand among them for comparison. Calls come from the whole dose curve; as a rule, active = well fitted inhibition curve with a large enough effect; inconclusive = small, poorly fitted or top-dose-only effect, or another doubt; inactive = no such curve, though single readings can be large or run the other way. Potencies beside an inconclusive call are fits to weak or partial responses and may not hold up.

Test: Primary qHTS for delayed death inhibitors of the malarial parasite plastid, 96 hour incubation
Details: P. falciparum luciferase reporter growth; series mostly up to 28.7 µM; activity change, negative = inhibition: at the top concentration
Method in brief: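 Two parasite generations (96 h, 37 C, 5% CO2) of compound exposure in infected erythrocytes (0.05% parasitemia, 2% hematocrit). Luciferase-reporter P. falciparum; decreased luminescence indicates inhibited growth, aimed at apicoplast-acting delayed death.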
% is set by controls: 0 for no effect and ±100 for the full control effect; potency is the fitted concentration of half-maximal effect.

Row | Structure (SMILES) | Potency | activity change, negative = inhibition
1 | COc1ccc(/C=N/Nc2cc(C)nc3ccc(OC)cc23)c(OC)c1 | inconclusive: 14.7 µM [inhibitor, single point] | 
2 | CC(=O)[C@H]1CC[C@H]2[C@@H]3CC=C4C[C@@H](O)CC[C@]4(C)[C@H]3CC[C@]12C | inconclusive: 0.0657 µM [inhibitor, partial curve, poor fit] | 
3 | Cn1cc(/C=C(\NC(=O)c2ccccc2Cl)C(=O)NCCN2CCOCC2)c2ccccc21 | inconclusive: 10.4 µM [inhibitor, single point] | 
4 | COc1ccc(C)cc1NC(=O)c1cc2c(=O)n3ccccc3nc2n1C |  | inactive: 11%
5 | CCc1ccc(NC(=O)CSc2nc3cc(C(=O)OC)ccc3c(=O)n2CC2CCCO2)cc1 (stereo not drawn) | inconclusive: 0.0029 µM [inhibitor, full curve, poor fit] | 
6 | COc1ccc(NCc2ccccc2[N+](=O)[O-])cc1OC | inconclusive: 9.28 µM [inhibitor, single point] | 
7 | O=C(CN(Cc1cccs1)C(=O)CCC(=O)Nc1ccccn1)NCc1ccccc1 |  | inactive: 57.5%
8 | COc1ccc(NC(=O)Cn2nnc(C(=O)NCc3ccco3)c2N)c(OC)c1 | inconclusive: 18.5 µM [inhibitor, single point] | 
9 | CCC(=O)c1ccc2c(c1)N(CCCN1CCN(CCO)CC1)c1ccccc1S2 | active: 4.78 µM | 
10 | COc1ccc(CC2c3cc(OC)c(OC)cc3CC[N+]2(C)CCC(=O)OCCCCCOC(=O)CC[N+]2(C)CCc3cc(OC)c(OC)cc3C2Cc2ccc(OC)c(OC)c2)cc1OC (stereo not drawn) | inconclusive: 0.147 µM [inhibitor, full curve, poor fit] | 
11 | CCCOC(=O)c1c(NC(=O)/C=C/c2cnn(C)c2C)sc(C(=O)OCC)c1C | inconclusive: 4.15 µM [inhibitor, single point] | 
12 | c1ccc(CCSc2nccn2-c2ccccc2)cc1 |  | inactive: 423%
13 | Cc1ccc(C)c(Cn2c(=O)c3c(nc4n3CCN4Cc3ccco3)n(C)c2=O)c1 | inconclusive: 0.233 µM [inhibitor, full curve, poor fit] | 
14 | Cc1ccc2[nH]c3c(NCc4ccccc4)ncnc3c2c1 | inconclusive: 2.08 µM [inhibitor, partial curve, poor fit] | 
15 | Cc1c(Cl)c(C(=O)N2CCCc3ccccc32)nn1C |  | inactive: -0.946%
16 | Cc1cccc(N(C)C(=O)c2cc3cc4ccc(C)cc4nc3o2)c1 |  | inactive: 12.6%
17 | CCOC(=O)c1ccc(NC2Nc3cc(C)nn3S2)cc1 (stereo not drawn) | inconclusive: 16.5 µM [inhibitor, single point] | 
18 | O=C(/C=C/c1cnc2ccccc2n1)NC12CC3CC(CC(C3)C1)C2 | inconclusive: 13.1 µM [inhibitor, single point] | 
19 | CC(C)C[C@@H](C(=O)NCC1CCCO1)N1C(=O)N2CCc3c([nH]c4ccccc34)[C@@]2(C)C1=O (stereo partly drawn) | inconclusive: 10.4 µM [inhibitor, single point] | 
20 | CCCCN(CCCC)CCNC(=O)CNC(=O)c1cccs1 | inconclusive: 18.5 µM [inhibitor, partial curve, poor fit] | 
21 | COCCn1nnnc1C(c1ccc(OC)cc1OC)N1CCN(c2ccccc2F)CC1 (stereo not drawn) |  | inactive: -28.1%
22 | Fc1ccc(-n2c(-c3ccc4ccccc4n3)n[nH]c2=S)cc1 |  | inactive: 0%

Row | Structure (SMILES) | Potency | activity change, negative = inhibition
23 | COc1ccc(C(CCN(Cc2ccc(OC)c(OC)c2)C(C)=O)C(C)C)cc1 (stereo not drawn) | inconclusive: 6.57 µM [inhibitor, partial curve] | 
24 | C=CCNC(=O)c1ccccc1NC(=O)c1ccccc1N(C)S(C)(=O)=O |  | inactive: -6.06%
25 | O=C(COc1ccc(Br)cc1)N1CCN(c2ccccc2)CC1 | active: 4.65 µM | 
26 | O=C(CCS(=O)(=O)c1ccccc1)Nc1ccccc1F |  | inactive: 233%
27 | Cc1ccc(S(=O)(=O)N2CCC(C(=O)N[C@@H](Cc3ccccc3)C(=O)O)CC2)cc1 |  | inactive: -16.9%
28 | COc1ccc(N2C(=O)C3CCCN3C2c2cccc(C)c2)cc1Cl (stereo not drawn) | inconclusive: 18.5 µM [inhibitor, single point] | 
29 | Cc1ccc2c(CN3CCN(Cc4ccccc4)CC3)cc(=O)oc2c1C | inconclusive: 8.28 µM [inhibitor, partial curve, poor fit] | 
30 | Cc1ccc(OCCSCc2nnc(NC(=O)Nc3cccc(Cl)c3)s2)cc1 | inconclusive: 18.5 µM [inhibitor, single point] | 
31 | O=C(CCN1C(=O)c2ccccc2C1=O)Nc1ccccc1C(F)(F)F |  | inactive: -0.627%
32 | Cc1ccc(-c2nc(=S)c3c(n2CC2CCCO2)CC(C)(C)OC3)cc1 (stereo not drawn) | inconclusive: 18.5 µM [inhibitor, single point] | 
33 | Cc1ccc(N(C)S(=O)(=O)c2cccc(C(=O)N(C)Cc3cnn(-c4ccccc4)c3)c2)cc1 | inconclusive: 18.5 µM [inhibitor, single point] | 
34 | O=C(Nc1ccc(S(=O)(=O)Nc2ccccn2)cc1)c1ccccc1 | inconclusive: 7.38 µM [inhibitor, partial curve, poor fit] | 
35 | Cc1ccnc(NS(=O)(=O)c2ccc(NC(=O)c3ccc(Cl)cc3[N+](=O)[O-])cc2)n1 | inconclusive: 7.38 µM [inhibitor, partial curve, poor fit] | 
36 | COc1ccc(CCNC(=O)c2cc(COc3c(F)cccc3F)on2)c(OC)c1 | inconclusive: 18.5 µM [inhibitor, single point] | 
37 | CC1CCN(CCOc2cccc(Br)c2)CC1 | inconclusive: 18.5 µM [inhibitor, single point] | 
38 | Cc1cccc(C)c1NC(=O)CN1C(=O)N(C)Cc2ccccc21 |  | inactive: -14.4% [at 5.75 µM]
39 | CCC(C)(C)NC(=O)C(c1sccc1C)N(Cc1ccco1)C(=O)c1csnn1 (stereo not drawn) |  | inactive: 10.6%
40 | Cc1ccc(C(=O)Nc2cccc(-c3cn4ccccc4n3)c2)cc1 | active: 13.1 µM | 
41 | CC1(C)CC(NC(=O)CCc2nnc(CCCCc3ccccc3)o2)CCO1 (stereo not drawn) | active: 10.4 µM | 
42 | Cc1ccc2c(c1)c1nnc(SCC(=O)N3CCCc4ccccc43)nc1n2CC(=O)O |  | inactive: 21.1%
43 | CCCCc1nc(SCC(=O)N2CCCCC2)c2c(=O)n(C)c(=O)n(C)c2n1 | inconclusive: 10.4 µM [inhibitor, single point] | 

Structural class, the compounds so far containing bromine.
Row | Structure (SMILES) | Potency | activity change, negative = inhibition
25 | O=C(COc1ccc(Br)cc1)N1CCN(c2ccccc2)CC1 | active: 4.65 µM | 
37 | CC1CCN(CCOc2cccc(Br)c2)CC1 | inconclusive: 18.5 µM [inhibitor, single point] | 
